Data taken from patent publication US4666886A, “Novel peptide derivatives” (Ciba-Geigy Corporation, priority 1983, dated 1987).
At least one peptide structure holds a part that was inferred or is arguable (an end, a ring closure or a residue).

System: Klebsiella pneumoniae or Streptococcus pneumoniae
Experiment: Prophylactic activity against lower respiratory tract infections in mice
Type: in vivo
Details: intranasal 0.05, 0.1 or 1.0 mg/kg, 24 or 48 hours before challenge infection

SMILES: CCCCCCCCCCCCCCCC(=O)N[C@@H](CSC[C@@H](COC(=O)CCCCCCCCCCC)OC(=O)CCCCCCCCCCC)C(=O)N[C@@H](C)C(=O)N[C@H](CCC(=O)NCC(=O)NCCS(=O)(=O)O)C(N)=O
- treated mice surviving the fourteenth day after infection: up to 70%
